{
  "source": "patent US20160051641",
  "test_system": "thrombin",
  "assay": "inhibition of the protein",
  "settings": "clotting assay, 10 IU/ml thrombin; TBA2 inhibition reversed by its antisense less efficiently than TBA1; exosite II binder; purified native protein; single-stranded DNA; dose not given here",
  "data": [
    {"sequence": "AGTCCGTGGTAGGGCAGGTTGGGGTGACT [TBA2 (TASSET-29)]", "values": [
      {"measurement": "functional effect of the aptamer", "value": "active"}
    ]}
  ]
}
